Reference: the supplement of paper PMC4604168 (melanoma cell lines)
The other results are listed elsewhere or left out. Repeats are few or missing, and single values can be far off.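 Cells were imaged in 1,536-well plates, and nuclei stained with an antibody against cleaved PARP were counted against all DNA-stained nuclei to give the apoptosis fraction. Screening doses were chosen to leave most cells alive, and resting and induced cleaved-PARP levels differ strongly between cell lines.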

Assays:
Test in all cases: cleaved PARP positive nuclei fraction relative to DMSO control; melanoma cells; higher = more apoptosis
Settings in all cases: library dose: low library concentration; 72 h
CBRC034 = test system: CBRC034 (line from a melanoma biopsy)
COLO792 = test system: COLO792
COLO800 = test system: COLO800
COLO829 = test system: COLO829
G361 = test system: G361
IPC-298 = test system: IPC-298
IST-MEL1 = test system: IST-MEL1
LB2518-MEL = test system: LB2518-MEL
LOXIMVI = test system: LOXIMVI

Structure (SMILES) | cleaved PARP positive nuclei fraction (CBRC034) [%] | cleaved PARP positive nuclei fraction (COLO792) [%] | cleaved PARP positive nuclei fraction (COLO800) [%] | cleaved PARP positive nuclei fraction (COLO829) [%] | cleaved PARP positive nuclei fraction (G361) [%] | cleaved PARP positive nuclei fraction (IPC-298) [%] | cleaved PARP positive nuclei fraction (IST-MEL1) [%] | cleaved PARP positive nuclei fraction (LB2518-MEL) [%] | cleaved PARP positive nuclei fraction (LOXIMVI) [%]
COc1ccc(COc2ccc(Cc3cnc(N)nc3N)cc2OC)cc1 + Cc1cc([N+](=O)[O-])ccc1NS(=O)(=O)c1cc(Cl)ccc1Cl [FH535] (first compound 1 µM, partner dose 1 µM) | 177 | 144 | 73.2 | 129 | 142 | 87.6 | 139 | 79.1 | 65.5
O=C1NC(=O)/C(=C/c2ccc(-c3ccc(F)cc3O)o2)S1 + c1cc(-c2cnn3cc(-c4ccc(OCCN5CCCCC5)cc4)cnc23)ccn1 [Dorsomorphin] (first compound 1 µM, partner dose 0.4 µM) | 42.5 | 103 | 64.9 | 67.2 | 146 | 42.9 | 80.7 | 87 | 33
NCC(=O)Nc1ccc(-n2nc(C(F)(F)F)cc2-c2ccc3c(ccc4ccccc43)c2)cc1 + O=c1cc(-c2cccc3c2Sc2ccccc2S3)oc(N2CCOCC2)c1 [KU55933] (first compound 1 µM, partner dose 1 µM) | 49.9 | 91.7 | 43.6 | 117 | 129 | 154 | 101 | 76.3 | 48.3
O=S(=O)(c1ccccc1)N(CC(F)(F)F)c1ccc(C(O)(C(F)(F)F)C(F)(F)F)cc1 + O=c1cc(-c2cccc3c2Sc2ccccc2S3)oc(N2CCOCC2)c1 [KU55933] (first compound 1.4 µM, partner dose 1 µM) | 107 | 124 | 49.1 | 118 | 83.1 | 87.7 | 105 | 69.2 | 55.6
O=C(Nc1ccccc1)c1cc([N+](=O)[O-])ccc1Cl + Cn1cc(/C=C2\C(=O)Nc3cccnc32)c2ccccc21 [GW441756] (first compound 2 µM, partner dose 0.4 µM) | 119 | 103 | 107 | 73.8 | 44.7 | 64.3 | 913 | 84.5 | 26.4
COc1ccc(-c2ccc3c(N4CCOCC4)nc(N4C[C@@H](C)O[C@@H](C)C4)nc3n2)cc1CO + c1cc(-c2cnn3cc(-c4ccc(OCCN5CCCCC5)cc4)cnc23)ccn1 [Dorsomorphin] (first compound 0.02 µM, partner dose 0.4 µM) | 53.5 | 127 | 86 | 183 | 113 | 66.1 | 170 | 432 | 1890
O=C(O)c1ccc(-c2c[nH]c3ncc(-c4ccccc4)cc23)cc1C1CCCC1 + CCCCCCCCCCCC1=C(O)C(=O)C=C(O)C1=O [Embelin] (first compound 0.16 µM, partner dose 1.2 µM) | 82.9 | 98.9 | 295 | 57 | 56.3 | 78.7 | 70.6 | 88.8 | 15
O=C(O)c1ccc(-c2c[nH]c3ncc(-c4ccccc4)cc23)cc1C1CCCC1 + COc1cc(N2CCC(N3CCN(C)CC3)CC2)ccc1Nc1ncc(Cl)c(Nc2ccccc2S(=O)(=O)C(C)C)n1 [NVP-TAE684] (first compound 0.16 µM, partner dose 0.08 µM) | 141 | 117 | 90.1 | 149 | 212 | 31.9 | 91 | 79.7 | 52.6
NCC(=O)Nc1ccc(-n2nc(C(F)(F)F)cc2-c2ccc3c(ccc4ccccc43)c2)cc1 + COc1ccc(COc2ccc(Cc3cnc(N)nc3N)cc2OC)cc1 [GW2580] (first compound 1 µM, partner dose 1 µM) | 43.8 | 109 | 62.6 | 109 | 99.4 | 129 | 321 | 77.9 | 72.3
O=C(O)c1ccc(-c2c[nH]c3ncc(-c4ccccc4)cc23)cc1C1CCCC1 + COc1ccc2c(c1)CCC1C2CCC2(C)C(NCCCCCCN3C(=O)C=CC3=O)CCC12 [U73122] (first compound 0.16 µM, partner dose 0.4 µM) | 41.8 | 93.3 | 131 | 81.7 | 42.8 | 115 | 94.5 | 145 | 132
COc1ccc(-c2ccc3c(N4CCOCC4)nc(N4C[C@@H](C)O[C@@H](C)C4)nc3n2)cc1CO + O=C1NC(=O)/C(=C/c2ccc(-c3ccc(F)cc3O)o2)S1 [AS252424] (first compound 0.02 µM, partner dose 1 µM) | 82.3 | 54.4 | 37.1 | 55.7 | 160 | 90.5 | 189 | 181 | 165
O=C(Nc1ccccc1)c1cc([N+](=O)[O-])ccc1Cl + Oc1cc(-c2nc(-c3ccccc3)[nH]c2-c2ccncc2)ccc1Cl [L779450] (first compound 2 µM, partner dose 0.2 µM) | 124 | 76.3 | 119 | 100 | 105 | 125 | 59.9 | 218 | 59
COc1ccc(COc2ccc(Cc3cnc(N)nc3N)cc2OC)cc1 + O=S(=O)(c1ccccc1)N(CC(F)(F)F)c1ccc(C(O)(C(F)(F)F)C(F)(F)F)cc1 [T0901317] (first compound 1 µM, partner dose 1.4 µM) | 84.8 | 70.1 | 90.7 | 111 | 144 | 29.3 | 124 | 86.5 | 68.8
Oc1cc(-c2nc(-c3ccccc3)[nH]c2-c2ccncc2)ccc1Cl + O=C(O)C(=O)Nc1sc2c(c1C(=O)O)CCNC2 [TCS401] (first compound 0.2 µM, partner dose 1.66667 µM) | 76.2 | 99.8 | 167 | 81.9 | 152 | 87.7 | 29.5 | 46.7 | 44.9
COc1cc2c(Oc3ccc4[nH]c(C)cc4c3F)ncnc2cc1OCCCN1CCCC1 [cediranib] + COc1ccc2c(c1)CCC1C2CCC2(C)C(NCCCCCCN3C(=O)C=CC3=O)CCC12 [U73122] (first compound 0.4 µM, partner dose 0.4 µM) | 97.2 | 103 | 120 | 169 | 64.9 | 125 | 134 | 84 | 62.6
Cc1cc([N+](=O)[O-])ccc1NS(=O)(=O)c1cc(Cl)ccc1Cl + CC(C)CCN1c2nc(Nc3cc(F)c(O)c(F)c3)ncc2N(C)C(=O)C1C [BID1870] (first compound 1 µM, partner dose 0.2 µM) | 206 | 204 | 104 | 190 | 78.1 | 45.7 | 70.6 | 222 | 70.1
COc1cc2c(Oc3ccc4[nH]c(C)cc4c3F)ncnc2cc1OCCCN1CCCC1 [cediranib] + Oc1cc(-c2nc(-c3ccccc3)[nH]c2-c2ccncc2)ccc1Cl [L779450] (first compound 0.4 µM, partner dose 0.2 µM) | 81.2 | 49.5 | 63.2 | 70.6 | 132 | 38.2 | 58.9 | 87 | 50.1
CN(C)S(=O)(=O)c1ccc2c(c1)/C(=C/c1cc3c([nH]1)CCCC3)C(=O)N2 + CCCCCCCCCCCC1=C(O)C(=O)C=C(O)C1=O [Embelin] (first compound 0.4 µM, partner dose 1.2 µM) | 101 | 170 | 87.3 | 130 | 69.4 | 34 | 169 | 78.2 | 24.1
c1cc(-c2cnn3cc(-c4ccc(OCCN5CCCCC5)cc4)cnc23)ccn1 [Dorsomorphin] + COc1cc(N2CCC(N3CCN(C)CC3)CC2)ccc1Nc1ncc(Cl)c(Nc2ccccc2S(=O)(=O)C(C)C)n1 [NVP-TAE684] (first compound 0.4 µM, partner dose 0.08 µM) | 28.3 | 67.9 | 201 | 109 | 31.8 | 82.5 | 159 | 246 | 62
COC(=O)c1sccc1S(=O)(=O)Nc1ccc(Nc2ccccc2)cc1OC + c1cc(-c2cnn3cc(-c4ccc(OCCN5CCCCC5)cc4)cnc23)ccn1 [Dorsomorphin] (first compound 1 µM, partner dose 0.4 µM) | 152 | 129 | 79.6 | 87.5 | 198 | 39.3 | 41.7 | 156 | 63.2
c1cc(-c2cnn3cc(-c4ccc(OCCN5CCCCC5)cc4)cnc23)ccn1 [Dorsomorphin] + CC(C)CCN1c2nc(Nc3cc(F)c(O)c(F)c3)ncc2N(C)C(=O)C1C [BID1870] (first compound 0.4 µM, partner dose 0.2 µM) | 112 | 74.3 | 76.2 | 34.8 | 180 | 81.3 | 58.6 | 104 | 41.7
COC(=O)c1sccc1S(=O)(=O)Nc1ccc(Nc2ccccc2)cc1OC + O=c1cc(-c2cccc3c2Sc2ccccc2S3)oc(N2CCOCC2)c1 [KU55933] (first compound 1 µM, partner dose 1 µM) | 84.5 | 142 | 91.4 | 28 | 86 | 114 | 130 | 66.1 | 53
O=C(Nc1ccccc1)c1cc([N+](=O)[O-])ccc1Cl + c1cc(-c2cnn3cc(-c4ccc(OCCN5CCCCC5)cc4)cnc23)ccn1 [Dorsomorphin] (first compound 2 µM, partner dose 0.4 µM) | 84.9 | 119 | 133 | 140 | 124 | 133 | 114 | 83.3 | 73.7
CCc1ccc(CCOc2ccc(CC3SC(=O)NC3=O)cc2)nc1 (stereo not given) [pioglitazone] + O=S(=O)(c1ccccc1)N(CC(F)(F)F)c1ccc(C(O)(C(F)(F)F)C(F)(F)F)cc1 [T0901317] (first compound 2 µM, partner dose 1.4 µM) | 120 | 79.2 | 85.8 | 93.2 | 97.2 | 59.6 | 87 | 84.3 | 26.4
CCc1ccc(CCOc2ccc(CC3SC(=O)NC3=O)cc2)nc1 (stereo not given) [pioglitazone] + O=C1NC(=O)/C(=C/c2ccc(-c3ccc(F)cc3O)o2)S1 [AS252424] (first compound 2 µM, partner dose 1 µM) | 65.4 | 95.2 | 88.2 | 12.4 | 578 | 41.1 | 214 | 85.2 | 46.8

Nothing new here: entries from further up.
Structure (SMILES) | cleaved PARP positive nuclei fraction (CBRC034) [%] | cleaved PARP positive nuclei fraction (COLO792) [%] | cleaved PARP positive nuclei fraction (COLO800) [%] | cleaved PARP positive nuclei fraction (COLO829) [%] | cleaved PARP positive nuclei fraction (G361) [%] | cleaved PARP positive nuclei fraction (IPC-298) [%] | cleaved PARP positive nuclei fraction (IST-MEL1) [%] | cleaved PARP positive nuclei fraction (LB2518-MEL) [%] | cleaved PARP positive nuclei fraction (LOXIMVI) [%]
O=S(=O)(c1ccccc1)N(CC(F)(F)F)c1ccc(C(O)(C(F)(F)F)C(F)(F)F)cc1 + O=c1cc(-c2cccc3c2Sc2ccccc2S3)oc(N2CCOCC2)c1 [KU55933] (first compound 1.4 µM, partner dose 1 µM) | 107 | 124 | 49.1 | 118 | 83.1 | 87.7 | 105 | 69.2 | 55.6
O=C(Nc1ccccc1)c1cc([N+](=O)[O-])ccc1Cl + Cn1cc(/C=C2\C(=O)Nc3cccnc32)c2ccccc21 [GW441756] (first compound 2 µM, partner dose 0.4 µM) | 119 | 103 | 107 | 73.8 | 44.7 | 64.3 | 913 | 84.5 | 26.4
COc1ccc(-c2ccc3c(N4CCOCC4)nc(N4C[C@@H](C)O[C@@H](C)C4)nc3n2)cc1CO + c1cc(-c2cnn3cc(-c4ccc(OCCN5CCCCC5)cc4)cnc23)ccn1 [Dorsomorphin] (first compound 0.02 µM, partner dose 0.4 µM) | 53.5 | 127 | 86 | 183 | 113 | 66.1 | 170 | 432 | 1890
O=C(O)c1ccc(-c2c[nH]c3ncc(-c4ccccc4)cc23)cc1C1CCCC1 + CCCCCCCCCCCC1=C(O)C(=O)C=C(O)C1=O [Embelin] (first compound 0.16 µM, partner dose 1.2 µM) | 82.9 | 98.9 | 295 | 57 | 56.3 | 78.7 | 70.6 | 88.8 | 15
O=C(O)c1ccc(-c2c[nH]c3ncc(-c4ccccc4)cc23)cc1C1CCCC1 + COc1cc(N2CCC(N3CCN(C)CC3)CC2)ccc1Nc1ncc(Cl)c(Nc2ccccc2S(=O)(=O)C(C)C)n1 [NVP-TAE684] (first compound 0.16 µM, partner dose 0.08 µM) | 141 | 117 | 90.1 | 149 | 212 | 31.9 | 91 | 79.7 | 52.6
NCC(=O)Nc1ccc(-n2nc(C(F)(F)F)cc2-c2ccc3c(ccc4ccccc43)c2)cc1 + COc1ccc(COc2ccc(Cc3cnc(N)nc3N)cc2OC)cc1 [GW2580] (first compound 1 µM, partner dose 1 µM) | 43.8 | 109 | 62.6 | 109 | 99.4 | 129 | 321 | 77.9 | 72.3
O=C(O)c1ccc(-c2c[nH]c3ncc(-c4ccccc4)cc23)cc1C1CCCC1 + COc1ccc2c(c1)CCC1C2CCC2(C)C(NCCCCCCN3C(=O)C=CC3=O)CCC12 [U73122] (first compound 0.16 µM, partner dose 0.4 µM) | 41.8 | 93.3 | 131 | 81.7 | 42.8 | 115 | 94.5 | 145 | 132
